According to PubChem BioAssay AID540276 (National Center for Advancing Translational Sciences (NCATS), 2011):
The campaign covered roughly 300,000 compounds. About 5,400 (1.8%) were called active. The shares of active, inactive and inconclusive entries below differ from those in the screen. The call rests on the fitted dose curve; tested in HEK293 cells. Where the call is inconclusive, the potency comes from a doubtful curve fit.

Test: qHTS for inhibitors of binding or entry into cells for Marburg Virus
Conditions: Marburg virus pseudotyped entry inhibition, cell reporter; series mostly up to 37.8 µM
Potency means the concentration at half of the fitted maximal effect.

Compound	Potency
CCOC(=O)c1nnsc1NC(=O)Nc1ccc(OC)cc1	inactive
COc1ccc(NC(=O)C(=O)NNC(=O)C(C)Oc2ccc(Cl)cc2Cl)cc1 (stereo unspecified)	inconclusive: 11.2 µM [inhibitor, partial curve, poor fit]
CC(=O)c1cccc(N(CC(=O)N2CCCC2)S(C)(=O)=O)c1	inactive
CCOc1ccc(CN(CC)C(=O)c2ccc3c(c2)[nH]c(=O)c(=O)n3CC)cc1OC	inactive
CCc1ccc(S(=O)(=O)NCc2csc(C)n2)cc1	inconclusive: 5.62 µM [inhibitor, partial curve]
Cc1ccc(S(=O)(=O)N(C)Cc2ccc(C(=O)N/N=C/c3ccc(OC(F)F)cc3OC(F)F)cc2)cc1	inconclusive: 2.82 µM [inhibitor, full curve, poor fit]
CC(C)(C)NC(=S)Nc1ccc(Nc2ccccc2)cc1	inactive
COc1ccc(NC(=O)c2ccc(CN3CCN(c4ccccc4)CC3)cc2)cc1	inconclusive: 1.12 µM [inhibitor, full curve]
CCn1c(C(=O)N2CCc3ccccc3C2)cc2oc3ccccc3c21	inactive
Cc1nn(-c2ccc(N3CCCCC3)nn2)c(C)c1CCC(=O)Nc1cc(F)ccc1F	inconclusive: 2.82 µM [activator, partial curve, poor fit]
COc1ccc(Cn2c3ccc(OC)cc3c3nc4ccccc4nc32)cc1	inconclusive: 35.5 µM [inhibitor, single point]
Cc1ccc(C(=O)NCC(=O)Nc2ccccc2C(F)(F)F)cc1	inconclusive: 31.6 µM [activator, single point]
CCc1ccc(C(C(=O)NC(C)(C)CC)N(Cc2ccco2)C(=O)Cn2nnc3ccccc32)cc1 (stereo unspecified)	inconclusive: 6.31 µM [inhibitor, partial curve, poor fit]
CN1c2ccccc2C(C)(C)[C@]12C=Cc1cc(O)ccc1O2	inconclusive: 4.47 µM [inhibitor, partial curve]
O=C(Oc1nsnc1N1CCCCC1)N1CCOCC1	inactive
COc1ccc(Oc2ccc(/C=C/C(=O)c3ccc(O)cc3)cc2[N+](=O)[O-])cc1	inconclusive: 20.6 µM [inhibitor, partial curve, poor fit]
Cc1cccn2c(=O)c3cc(C(=O)NC(C)c4ccccc4)c(=N)n(CCOCCO)c3nc12 (stereo unspecified)	inconclusive: 6.31 µM [inhibitor, single point]
CC(C)N1CCN(C(=O)c2ccc(OC3CCN(CCc4ccccc4)CC3)cc2)CC1	active: 11.2 µM
NCCSC1CC(=O)N(Cc2ccc(F)cc2)C1=O (stereo unspecified)	inactive
CC(NC(=O)c1cccc2ccccc12)c1ccc2c(c1)CCCC2 (stereo unspecified)	inconclusive: 3.98 µM [inhibitor, partial curve, poor fit]
C=CCS(=O)(=O)c1cccc2cccnc12	inconclusive: 3.16 µM [activator, single point]
COc1ccc(N2CC(NS(=O)(=O)c3ccc4ccccc4c3)CC2=O)cc1OC (stereo unspecified)	inactive
O=C(O)C1CC=CCC1C(=O)Nc1cc(Cl)ccc1Cl (stereo unspecified)	inconclusive: 35.5 µM [activator, single point]
COc1ccc2c(c1)Cc1sc(NC(=O)c3ccc(Cl)cc3)nc1-2	inconclusive: 0.562 µM [inhibitor, full curve, poor fit]

Compound	Potency
Cc1ccccc1NC(=O)CN1CCc2ccccc2C1	inconclusive: 5.62 µM [inhibitor, partial curve, poor fit]
CC(C)n1c(N2CCN(C(=O)N3CCCCC3)CC2)nc2ccccc21	inconclusive: 12.6 µM [inhibitor, partial curve, poor fit]
O=C1OCc2cccc3cccc1c23	inactive
CCOC(=O)C1(CC2CC2)CCN(Cc2ccc(OC)cc2F)CC1	active: 10 µM
CO[C@@H]1c2cc(F)ccc2C(=CCCOC(=O)CC=Cc2ccccc2)[C@H]1C	inactive
CCN(CC)Cc1cc(C(C)(C)C)cc(N2CCOCC2)c1O	inconclusive: 2 µM [inhibitor, full curve]
COc1cccc(NC(=O)c2cn(C)c(=O)c3cc(OC)c(OC)cc23)c1	inconclusive: 0.112 µM [inhibitor, full curve, poor fit]
O=c1cc(CN2CCN(C/C=C/c3ccccc3)CC2)c2cc(O)ccc2o1	inactive
COC(=O)Cn1cc(/C=C/[N+](=O)[O-])c2ccccc21	inconclusive: 35.5 µM [inhibitor, single point]
COc1ccc(-c2nnc(SCC(=O)c3ccc([N+](=O)[O-])cc3)o2)cc1OC	inactive
CCn1c(COc2ccccc2)nnc1SCc1ccc(C#N)cc1	inconclusive: 15.8 µM [inhibitor, single point]
OC(CNc1ccccc1)COc1ccc(OCC(O)CNc2ccccc2)cc1 (stereo unspecified)	active: 11.2 µM
COc1cc(/C=C(\C#N)c2ccccn2)ccc1OCC(=O)Nc1c(Cl)cccc1Cl	inactive
O=C(O)/C=C/c1ccccc1[N+](=O)[O-]	inactive
CCC(C)(C)NC(=S)Nc1ccc(-c2nc3ccc(C)cc3s2)cc1	inconclusive: 0.398 µM [activator, partial curve, poor fit]
N#Cc1ccccc1CSc1nnc(-c2ccncc2)o1	inconclusive: 4.47 µM [activator, single point]
COc1ccc(S(=O)(=O)N2CCCC2CNC(=O)c2cccc(OC)c2)cc1 (stereo unspecified)	inactive
Cc1cc(C)c2nc(NNC(=O)c3ccc(S(=O)(=O)N4CCc5ccccc5C4)cc3)sc2c1	inconclusive: 14.6 µM [inhibitor, partial curve, poor fit]
O=S(=O)(c1cccc(-c2nc3ccccc3s2)c1)N1CCCC1	inconclusive: 16.4 µM [inhibitor, single point]
COc1ccc(-c2cc(CNC(=O)CCl)on2)cc1	inconclusive: 35.5 µM [inhibitor, partial curve, poor fit]
COc1ccccc1NC(=O)c1ccc(NC(=O)c2cc3c(s2)CCC3)cc1	inconclusive: 14.1 µM [inhibitor, partial curve, poor fit]
CCOc1ccccc1N1CC(c2nc3ccccc3n2CCOc2ccccc2OC)CC1=O (stereo unspecified)	inconclusive: 12.6 µM [inhibitor, partial curve, poor fit]
O=C(CSc1ccc(Cl)cc1)NC1CCCC1	inactive
CCN(CC)S(=O)(=O)c1ccc(C(=O)O)cc1	inactive

A portion from the list above, as a working copy:
Compound	Potency
CO[C@@H]1c2cc(F)ccc2C(=CCCOC(=O)CC=Cc2ccccc2)[C@H]1C	inactive
CCN(CC)Cc1cc(C(C)(C)C)cc(N2CCOCC2)c1O	inconclusive: 2 µM [inhibitor, full curve]
COc1cccc(NC(=O)c2cn(C)c(=O)c3cc(OC)c(OC)cc23)c1	inconclusive: 0.112 µM [inhibitor, full curve, poor fit]
O=c1cc(CN2CCN(C/C=C/c3ccccc3)CC2)c2cc(O)ccc2o1	inactive

Additional structures follow:

Compound	Potency
Cc1ccsc1/C=C1\Oc2cc(OCC(=O)c3ccccc3)ccc2C1=O	inconclusive: 35.5 µM [activator, single point]
C=CCN(CC=C)c1nc2ccccc2nc1[C@H](C#N)C(=O)OC(C)C	inconclusive: 0.251 µM [inhibitor, full curve, poor fit]
CC(Nc1cccc(C(=O)NC2CC2)c1)c1nnc(-c2ccccc2)o1 (stereo unspecified)	inconclusive: 10 µM [inhibitor, partial curve, poor fit]
O=C(CSc1nc(=O)n(CCN2CCOCC2)c2c1CCCC2)Nc1cccc([N+](=O)[O-])c1	inactive
COc1ccc(C(=O)Nc2nc(-c3ccc([N+](=O)[O-])cc3)c(-c3ccccc3)s2)cc1	inactive
Cc1cc2oc(C(=O)NCc3ccccc3)cc(=O)c2cc1C	inconclusive: 3.16 µM [inhibitor, single point]
CCCC(O)(CCC)C(=O)NN(C(=O)CCl)c1cccc(C)c1	inconclusive: 23.1 µM [inhibitor, partial curve, poor fit]
CCCc1cc(CN(C)C(=O)CC2C(=O)NCCN2Cc2ccccc2C)[nH]n1 (stereo unspecified)	inconclusive: 1.26 µM [inhibitor, single point]
O=C1C=CC(=Nc2ccc3c(c2)Cc2cc(F)ccc2-3)O1	inactive
Cc1ccc2c(c1)C(=O)C(=O)N2CC(=O)Nc1ccc(N2CCOCC2)cc1	inconclusive: 1 µM [inhibitor, full curve, poor fit]
Cc1ccc(CNC(=O)CCC2CCCN(C(=O)c3ccc4c(c3)OCO4)C2)o1 (stereo unspecified)	inactive
Cc1cc(Nc2ccc(Cl)cc2)n2cnnc2n1	inactive
CCOc1ccc(/C=N/Nc2cc(C)nc(N3CCOCC3)n2)cc1	inactive
CCOC(=O)c1ccc(NC(=O)c2ccccc2C)cc1	inconclusive: 1.26 µM [activator, single point]
COc1ccc(CN2CCCC(C(=O)c3ccc(Cl)cc3)C2)c(OC)c1 (stereo unspecified)	inconclusive: 12.6 µM [inhibitor, partial curve, poor fit]
Cc1cc2ccccn2c1C(=O)c1ccccc1Br	inconclusive: 35.5 µM [inhibitor, single point]
Cc1cc(NC(=O)c2cccc(F)c2)ncc1NC(=O)c1ccco1	inconclusive: 25.1 µM [inhibitor, single point]
COC(=O)c1cccc(NC(=O)c2ccc3c(c2)C(=O)N(C(C)(C)C)C3=O)c1	inactive
CN(C)S(=O)(=O)c1ccc(NC(=O)Cc2ccc(S(=O)(=O)N3CCOCC3)s2)cc1	inconclusive: 1.41 µM [activator, partial curve, poor fit]
O=C1NC(=Nc2ccc(Cl)cc2)SC1Cc1cc(Cl)ccc1Cl (stereo unspecified)	inactive
Cc1ccc(NS(=O)(=O)c2cc(C(=O)Nc3cccc(N(C)S(C)(=O)=O)c3)ccc2C)c(C)c1	inconclusive: 12.6 µM [inhibitor, partial curve, poor fit]
CCCCCCn1c(-c2cccs2)n[nH]c1=S	inactive
COC(=O)c1ccc(OC)c(CSc2nnc(COc3cccc(C)c3)o2)c1	active: 16.4 µM
